# Reference: the supplement of paper PMC11438910
# The list shows a part of the results. The signal is at background level for most entries.
# B1: 3S41.1 (protein)
# chain 1: EVQLVESGGGLVQPGGSLRLSCATSGFTFRNYWMYWFRQAPGKGLDWVSSISDSSSNTFYSDSVKGRFTISRDNAKNTLYLQMNSLRAEDTAVYYCARRPIAAATGVYWYFDLWGPGTPITVSS
# chain 2: EIVMTQSPATLSLSPGERATLSCRASQNIGSNLAWYQQKPGRAPKLLIYDASSRATGIPDRFSASGSGTDFTLTISSLEPEDVGVYYCQQYNNWKIFGPGTKLEIK
# Assays:
# Assay in all cases: fluorescence intensity of antibody binding to polysaccharide-coupled beads; higher = stronger binding
# [1] = molecular target: pneumococcal polysaccharide Pn39
# [2] = molecular target: pneumococcal polysaccharide Pn4
# [3] = molecular target: pneumococcal polysaccharide Pn40
# [4] = molecular target: pneumococcal polysaccharide Pn41A
# [5] = molecular target: pneumococcal polysaccharide Pn41F
# [6] = molecular target: pneumococcal polysaccharide Pn42
# [7] = molecular target: pneumococcal polysaccharide Pn43
# [8] = molecular target: pneumococcal polysaccharide Pn44
# [9] = molecular target: pneumococcal polysaccharide Pn45
# [10] = molecular target: pneumococcal polysaccharide Pn46
# [11] = molecular target: pneumococcal polysaccharide Pn47A
# [12] = molecular target: pneumococcal polysaccharide Pn47F
# [13] = molecular target: pneumococcal polysaccharide Pn48
# [14] = molecular target: pneumococcal polysaccharide Pn5
# [15] = antibody concentration 81.7561 ng/mL
# [16] = antibody concentration 437.17 ng/mL
# [17] = antibody concentration 2337.65 ng/mL
# [18] = antibody concentration 0.1 ng/mL
# [19] = antibody concentration 0.534724 ng/mL
# [20] = antibody concentration 2.8593 ng/mL
# [21] = antibody concentration 15.2894 ng/mL
binder,measurement,setting,value
B1,fluorescence intensity,[1]; [15],18.5 MFI
same,fluorescence intensity,[1]; [16],19 MFI
same,fluorescence intensity,[1]; [17],20.5 MFI
same,fluorescence intensity,[2]; [18],19.5 MFI
same,fluorescence intensity,[2]; [19],19 MFI
same,fluorescence intensity,[2]; [20],20.5 MFI
same,fluorescence intensity,[2]; [21],20 MFI
same,fluorescence intensity,[2]; [15],18.5 MFI
same,fluorescence intensity,[2]; [16],18.5 MFI
same,fluorescence intensity,[2]; [17],24 MFI
same,fluorescence intensity,[3]; [18],16.5 MFI
same,fluorescence intensity,[3]; [19],16 MFI
same,fluorescence intensity,[3]; [20],15.5 MFI
same,fluorescence intensity,[3]; [21],16.2 MFI
same,fluorescence intensity,[3]; [15],18.5 MFI
same,fluorescence intensity,[3]; [16],16.5 MFI
same,fluorescence intensity,[3]; [17],21 MFI
same,fluorescence intensity,[4]; [18],24.5 MFI
same,fluorescence intensity,[4]; [19],24 MFI
same,fluorescence intensity,[4]; [20],23 MFI
same,fluorescence intensity,[4]; [21],24 MFI
same,fluorescence intensity,[4]; [15],23.5 MFI
same,fluorescence intensity,[4]; [16],23.8 MFI
same,fluorescence intensity,[4]; [17],26.5 MFI
same,fluorescence intensity,[5]; [18],13.5 MFI
same,fluorescence intensity,[5]; [19],12.8 MFI
same,fluorescence intensity,[5]; [20],12.5 MFI
same,fluorescence intensity,[5]; [21],12.5 MFI
same,fluorescence intensity,[5]; [15],12.5 MFI
same,fluorescence intensity,[5]; [16],15 MFI
same,fluorescence intensity,[5]; [17],14.5 MFI
same,fluorescence intensity,[6]; [18],12 MFI
same,fluorescence intensity,[6]; [19],11 MFI
same,fluorescence intensity,[6]; [20],10.5 MFI
same,fluorescence intensity,[6]; [21],11.8 MFI
same,fluorescence intensity,[6]; [15],11.5 MFI
same,fluorescence intensity,[6]; [16],11 MFI
same,fluorescence intensity,[6]; [17],15 MFI
same,fluorescence intensity,[7]; [18],15.5 MFI
same,fluorescence intensity,[7]; [19],16 MFI
same,fluorescence intensity,[7]; [20],15 MFI
same,fluorescence intensity,[7]; [21],16 MFI
same,fluorescence intensity,[7]; [15],16 MFI
same,fluorescence intensity,[7]; [16],17.5 MFI
same,fluorescence intensity,[7]; [17],27 MFI
same,fluorescence intensity,[8]; [18],26 MFI
same,fluorescence intensity,[8]; [19],25.5 MFI
same,fluorescence intensity,[8]; [20],25 MFI
same,fluorescence intensity,[8]; [21],26 MFI
same,fluorescence intensity,[8]; [15],25 MFI
same,fluorescence intensity,[8]; [16],24.5 MFI
same,fluorescence intensity,[8]; [17],28 MFI
same,fluorescence intensity,[9]; [18],11.5 MFI
same,fluorescence intensity,[9]; [19],11 MFI
same,fluorescence intensity,[9]; [20],11.2 MFI
same,fluorescence intensity,[9]; [21],11 MFI
same,fluorescence intensity,[9]; [15],11 MFI
same,fluorescence intensity,[9]; [16],10 MFI
same,fluorescence intensity,[9]; [17],13 MFI
same,fluorescence intensity,[10]; [18],23 MFI
same,fluorescence intensity,[10]; [19],23 MFI
same,fluorescence intensity,[10]; [20],23.5 MFI
same,fluorescence intensity,[10]; [21],24.8 MFI
same,fluorescence intensity,[10]; [15],23.5 MFI
same,fluorescence intensity,[10]; [16],24.5 MFI
same,fluorescence intensity,[10]; [17],27.5 MFI
same,fluorescence intensity,[11]; [18],15.5 MFI
same,fluorescence intensity,[11]; [19],17 MFI
same,fluorescence intensity,[11]; [20],15.5 MFI
same,fluorescence intensity,[11]; [21],17 MFI
same,fluorescence intensity,[11]; [15],16.5 MFI
same,fluorescence intensity,[11]; [16],16.5 MFI
same,fluorescence intensity,[11]; [17],17.2 MFI
same,fluorescence intensity,[12]; [18],12 MFI
same,fluorescence intensity,[12]; [19],12.5 MFI
same,fluorescence intensity,[12]; [20],13 MFI
same,fluorescence intensity,[12]; [21],12 MFI
same,fluorescence intensity,[12]; [15],10.5 MFI
same,fluorescence intensity,[12]; [16],13 MFI
same,fluorescence intensity,[12]; [17],15.5 MFI
same,fluorescence intensity,[13]; [18],23.5 MFI
same,fluorescence intensity,[13]; [19],22.8 MFI
same,fluorescence intensity,[13]; [20],23.2 MFI
same,fluorescence intensity,[13]; [21],20.2 MFI
same,fluorescence intensity,[13]; [15],22.5 MFI
same,fluorescence intensity,[13]; [16],23 MFI
same,fluorescence intensity,[13]; [17],27.5 MFI
same,fluorescence intensity,[14]; [18],8.5 MFI
same,fluorescence intensity,[14]; [19],8.5 MFI
same,fluorescence intensity,[14]; [20],9.5 MFI

# Quoted at random: three records from the list
binder,measurement,setting,value
B1,fluorescence intensity,[12]; [21],12 MFI
same,fluorescence intensity,[10]; [17],27.5 MFI
same,fluorescence intensity,[8]; [18],26 MFI
